PubChem BioAssay AID1259425 | University of Nebraska Medical Center | 2018

Aim: 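Find knockdowns that reproduce the gene expression pattern seen when KSR1 is lost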 (primary screen)
Cell system: HCT116 human colon cancer cells
Knock-down reagent: siRNA pool against human genes, 50 nM siRNA
Measured: 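After 50 nM siRNA pool, branched-DNA assay measures six marker transcripts per well, minus blank, normalised to the geometric mean of two housekeeping transcripts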
Direction: BNIP3L mRNA: higher = more BNIP3L transcript after knockdown; NDRG1 mRNA: higher = more NDRG1 transcript after knockdown
The whole screen tested about 14,000 reagents; shown is a random part of them. The numbers tell different reagents against one gene apart. A reagent listed more than once was tested more than once; the source does not tell the runs apart. Further read-outs or replicates are left out here. The record does not give: the time to read-out.

CELP
- BNIP3L mRNA, set 1: 0.0646
- NDRG1 mRNA, set 1: 0.106

TMPRSS2
- BNIP3L mRNA, set 1: 0.126
- NDRG1 mRNA, set 1: 0.279

IFIT3
- BNIP3L mRNA, set 1: 0.0988
- NDRG1 mRNA, set 1: 0.218

CASTOR3P
- BNIP3L mRNA, set 1: 0.102
- NDRG1 mRNA, set 1: 0.123

XRCC3
- BNIP3L mRNA, set 1: 0.0982
- NDRG1 mRNA, set 1: 0.127

PHOX2A
- BNIP3L mRNA, set 1: 0.0619
- NDRG1 mRNA, set 1: 0.0673

TRPV3
- BNIP3L mRNA, set 1: 0.149
- NDRG1 mRNA, set 1: 0.602

MMP11
- BNIP3L mRNA, set 1: 0.165
- NDRG1 mRNA, set 1: 0.398

CDC45
- BNIP3L mRNA, set 1: 0.117
- NDRG1 mRNA, set 1: 0.26

RAB8B
- BNIP3L mRNA, set 1: 0.0812
- NDRG1 mRNA, set 1: 0.0869

AGRP
- BNIP3L mRNA, set 1: 0.145
- NDRG1 mRNA, set 1: 0.491

GARS1
- BNIP3L mRNA, set 1: 0.137
- NDRG1 mRNA, set 1: 0.171

OR51E1
- BNIP3L mRNA, set 1: 0.249
- NDRG1 mRNA, set 1: 0.175

TAT
- BNIP3L mRNA, set 1: 0.112
- NDRG1 mRNA, set 1: 0.146

ZNF195
- BNIP3L mRNA, set 1: 0.123
- NDRG1 mRNA, set 1: 0.0916

OSGEP
- BNIP3L mRNA, set 1: 0.0779
- NDRG1 mRNA, set 1: 0.107

LIF
- BNIP3L mRNA, set 1: 0.107
- NDRG1 mRNA, set 1: 0.338

BMP1
- BNIP3L mRNA, set 1: 0.088
- NDRG1 mRNA, set 1: 0.166

SAYSD1
- BNIP3L mRNA, set 1: 0.0853
- NDRG1 mRNA, set 1: 0.137

MRPS33
- BNIP3L mRNA, set 1: 0.0466
- NDRG1 mRNA, set 1: 0.201

OR1J2
- BNIP3L mRNA, set 1: 0.423
- NDRG1 mRNA, set 1: 0.46

OR1J2
- BNIP3L mRNA, set 1: 0.239
- NDRG1 mRNA, set 1: 0.24

GNRHR
- BNIP3L mRNA, set 1: 0.231
- NDRG1 mRNA, set 1: 0.28

TSHB
- BNIP3L mRNA, set 1: 0.0965
- NDRG1 mRNA, set 1: 0.176

VTCN1
- BNIP3L mRNA, set 1: 0.167
- NDRG1 mRNA, set 1: 0.619

SLC17A5
- BNIP3L mRNA, set 1: 0.0539
- NDRG1 mRNA, set 1: 0.113

NOCT
- BNIP3L mRNA, set 1: 0.196
- NDRG1 mRNA, set 1: 0.297

RABGAP1
- BNIP3L mRNA, set 1: 0.0758
- NDRG1 mRNA, set 1: 0.107

RABGAP1
- BNIP3L mRNA, set 1: 0.0916
- NDRG1 mRNA, set 1: 0.0685

SCRT1 #1
- BNIP3L mRNA, set 1: 0.138
- NDRG1 mRNA, set 1: 0.195

SCRT1 #2
- BNIP3L mRNA, set 1: 0.229
- NDRG1 mRNA, set 1: 0.102

SLC22A15
- BNIP3L mRNA, set 1: 0.122
- NDRG1 mRNA, set 1: 0.362

MLH1
- BNIP3L mRNA, set 1: 0.0811
- NDRG1 mRNA, set 1: 0.15

CXCL9
- BNIP3L mRNA, set 1: 0.112
- NDRG1 mRNA, set 1: 0.358

CLDN2
- BNIP3L mRNA, set 1: 0.179
- NDRG1 mRNA, set 1: 0.275

UBD
- BNIP3L mRNA, set 1: 0.0302
- NDRG1 mRNA, set 1: 0.18
